From publication PMC9589254, “Disrupting Cu trafficking as a potential therapy for cancer” (Frontiers in Molecular Biosciences, 2022)
Results are given in words; binding and its absence hold for the method and conditions named.

Sequences of proteins named here, by UniProt entry; tags and fusion partners are left off.
UniProt P0A9G4: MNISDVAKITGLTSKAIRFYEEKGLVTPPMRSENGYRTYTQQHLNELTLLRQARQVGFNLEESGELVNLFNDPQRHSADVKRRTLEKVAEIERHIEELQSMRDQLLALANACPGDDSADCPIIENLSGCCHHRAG

How the values were obtained:
[1] = target: CueR, Escherichia coli copper receptor (Escherichia coli) (UniProt P0A9G4); assay: MST; CueR with KER or SMD peptide (Supplementary Figure S6); whether Cu(I) was present is not told; both purified
[2] = target: T1, Atox1, fluorescently labelled (NT-647-NHS) (UniProt O00244); assay: MST; without Cu(I); labelled protein 50 nM, peptide titrated; 25 mM Na2HPO4 pH 8, 150 mM NaCl, 0.05% Tween 20; 25 C; Monolith NT.115; both purified
T1 sequence (chain, red fluorescent NT-647-NHS on lysine residues): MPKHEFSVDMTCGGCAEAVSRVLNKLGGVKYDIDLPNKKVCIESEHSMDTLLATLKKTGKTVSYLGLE

[3] = target: T2, Atox1, fluorescently labelled (NT-647-NHS) (UniProt O00244 1-68, red fluorescent NT-647-NHS on lysine residues); assay: as above
T2 sequence (looked up): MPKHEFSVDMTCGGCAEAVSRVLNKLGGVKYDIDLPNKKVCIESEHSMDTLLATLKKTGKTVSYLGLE

[4] = target: T2, Atox1, fluorescently labelled …; assay: MST; with Cu(I) 40 uM; labelled protein 50 nM, peptide titrated; 25 mM Na2HPO4 pH 8, 150 mM NaCl, 0.05% Tween 20; 25 C; Monolith NT.115; both purified

| Binder | binding [1] | binding [2] | binding [3] | binding [4] |
| --- | --- | --- | --- | --- |
| KERTSR (Made on rink-amide resin, which would give a C-terminal amide; also called KERTSR; source: synthetic peptide (Fmoc, rink-amide resin, reverse phase HPLC; 99.4% purity)) [KER peptide] | no binding | no binding (condition: without Cu(I) (peptide up to 4 mM)) |  |  |
| SMDMSIE (Made on rink-amide resin, which would give a C-terminal amide; also called SMDMSIE; source: synthetic peptide (Fmoc, rink-amide resin, reverse phase HPLC; 95.1% purity)) [SMD peptide] | no binding | no binding (condition: without Cu(I) (peptide up to 4 mM)) |  |  |
| GAGAAA [control peptide (GAGAAA, termed Ala)] |  |  | no binding (tested: peptide up to 4 mM) | no binding (tested: peptide up to 4 mM) |
